Article doi:10.1101/2023.03.10.532066
For at least one entry, the source does not settle the construct or the ends of the probe. At least one verdict rests on a figure or table, not on a statement of the authors. Tags and fusion partners may be left off the protein sequences shown.

Molecular target: T1, GLK2 (Arabidopsis thaliana) (UniProt Q9FFH0)
T1 sequence (looked up, limits assumed): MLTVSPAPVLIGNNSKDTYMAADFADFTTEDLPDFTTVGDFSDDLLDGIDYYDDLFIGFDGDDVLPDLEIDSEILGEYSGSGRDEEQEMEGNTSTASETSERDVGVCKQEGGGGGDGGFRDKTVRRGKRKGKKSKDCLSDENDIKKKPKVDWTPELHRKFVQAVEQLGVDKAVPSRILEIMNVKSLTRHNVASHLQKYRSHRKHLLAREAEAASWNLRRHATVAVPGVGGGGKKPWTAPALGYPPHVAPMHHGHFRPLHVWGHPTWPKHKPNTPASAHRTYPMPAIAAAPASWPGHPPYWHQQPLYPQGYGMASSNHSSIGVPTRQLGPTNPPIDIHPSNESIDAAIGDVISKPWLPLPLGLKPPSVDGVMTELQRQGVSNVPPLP
Assay: EMSA

| Sequence | binding result |
| --- | --- |
| AGTAGTGGCACACAAAGTCACAACTAGAATCGTCGAGAGAAGAGCTTGGATCTTAC (double strand) [UF3GT-probeA (pUF3GT-A-EMSA)] | binds |
| ATACCAACACTGATTCTGATTCTGATTCTTCATAGAAGAAGAGAGCCAC (double strand) [DFR-probeD (pDFR-D-EMSA)] | binds |
| ATTCTTCATCATTCAAGATTGGATTTCCAGAAACATAAGCCATGGAAGCTTCCAAGAATCTTTGTTCATCGGAAC (double strand) [LDOX-probeB (pLDOX-B-EMSA)] | binds |
| CACACACCATTCATCAGGACACTCACCAATCTGATCCGTTAAAGGTTTATGTATTT (double strand) [UF3GT-probeB (pUF3GT-B-EMSA)] | binds |
| GCCCATATAGTAGTAATCTTTTTGACCAATCAGTCAACCCAACCATCCTCTCCCGT (double strand) [LDOX-probeC (pLDOX-C-EMSA)] | binds |
| TCCAGCGTAAGCAAGAACGAGATTGGCACCACCTTCGCCTCTGTAAATCCAATCTGATGCATCTTTCTCCTCCA (double strand) [DFR-probeF (pDFR-F-EMSA)] | binds |
